This passage reports binding results from patent US20070248536A1.

Chains of the proteins cited; added tags and fusions are not shown. Residues count along the entry.
UniProt P02769, residues 25-607: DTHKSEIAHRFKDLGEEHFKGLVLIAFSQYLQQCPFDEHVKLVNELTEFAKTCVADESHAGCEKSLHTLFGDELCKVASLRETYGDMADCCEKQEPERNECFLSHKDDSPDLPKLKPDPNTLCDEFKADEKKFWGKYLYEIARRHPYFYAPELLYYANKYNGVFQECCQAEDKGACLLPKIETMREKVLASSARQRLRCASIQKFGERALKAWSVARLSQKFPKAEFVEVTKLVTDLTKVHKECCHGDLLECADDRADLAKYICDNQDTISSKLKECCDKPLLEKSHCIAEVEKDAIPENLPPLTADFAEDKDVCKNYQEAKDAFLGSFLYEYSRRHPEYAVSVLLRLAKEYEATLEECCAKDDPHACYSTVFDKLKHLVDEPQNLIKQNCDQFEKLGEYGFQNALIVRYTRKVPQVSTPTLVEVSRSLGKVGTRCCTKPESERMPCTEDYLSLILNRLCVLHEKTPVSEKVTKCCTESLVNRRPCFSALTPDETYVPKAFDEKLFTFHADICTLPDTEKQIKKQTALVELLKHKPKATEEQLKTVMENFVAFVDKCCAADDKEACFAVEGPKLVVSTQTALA

These are yes or no findings as the source states them, for the method shown.

The test concerns the target BSA (bovine) (UniProt P02769). The test is described as follows: condition: 1 ml of 5 mg/ml BSA mixed with 0.5 ml proNGF applied (not printed on the sheet); SDS PAGE of fractions of the SPC7-E9 affinity column, BSA/proNGF mixture applied.

B1: Affilin variation SPC7-E9 (designed binder)
chain: MGFICFLEDRAFQGRSYACDTDCPNLQPYFSRCNSISVLSGCWMIYERPNYQGHQYFLRRGEYPDYQQWMGLSDSIRSCCLIPPHSGAYRMKIYDRDELRGQMSELTDDCLSVQDRFHLTEIHSLNVLEGSWILYEMPNYRGRQYLLRPGEYRRFLDWGAPNAKVGSLRRVMDLYLEHHHHHH
Take B1: the binding result is reported as “no binding”.
